In data set [1] the target is T1, MBP-SOA(1195-1265), ZnF domain (Anopheles gambiae) (UniProt Q7Q6N8).
T1 sequence (looked up): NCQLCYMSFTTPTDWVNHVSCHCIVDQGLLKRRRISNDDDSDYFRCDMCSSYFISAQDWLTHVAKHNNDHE
Description: fluorescence polarization. Conditions: FP: 10 mM Na-HEPES pH 7.4, 150 mM NaCl, 1 mM TCEP, 0.1 g/l BSA, 5% glycerol, 0.05% Triton X-100, 5 nM DNA, 20 C; recombinant protein; residues 1195-1265; protein details: N-terminal His6-MBP; label: Cy5 on one strand. In general terms: Polarisation of emitted light reports the rotation of a fluorescent probe.

Data set [2] deals with T2, MBP-SOA(1-331), myb+BTB (Anopheles gambiae) (UniProt Q7Q6N8).
T2 sequence (looked up): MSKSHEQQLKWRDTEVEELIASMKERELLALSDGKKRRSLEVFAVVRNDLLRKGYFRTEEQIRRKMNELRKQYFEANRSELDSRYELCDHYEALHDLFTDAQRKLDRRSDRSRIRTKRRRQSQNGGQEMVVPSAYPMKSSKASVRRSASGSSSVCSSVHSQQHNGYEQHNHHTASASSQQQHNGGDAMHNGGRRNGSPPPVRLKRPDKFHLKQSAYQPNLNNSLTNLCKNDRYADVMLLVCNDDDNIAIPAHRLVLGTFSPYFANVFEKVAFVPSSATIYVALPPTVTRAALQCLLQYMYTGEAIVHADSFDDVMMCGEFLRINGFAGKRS
Description: fluorescence polarization. Conditions: FP: 10 mM Na-HEPES pH 7.4, 150 mM NaCl, 1 mM TCEP, 0.1 g/l BSA, 5% glycerol, 0.05% Triton X-100, 5 nM DNA, 20 C; recombinant protein; residues 1-331; protein details: N-terminal His6-MBP; label: Cy5 on one strand.

The results in this text go back to article PMC10620080, “The sex-specific factor SOA controls dosage compensation in Anopheles mosquitoes”.

For some assays here: A negative result means that nothing was seen under these conditions. At least one verdict rests on a figure or table, not on a statement of the authors. Tags and fusion partners may be left off the protein sequences shown. For some assays here: The exact form of at least one protein or probe is not confirmed.

As for “CACACACACACACACACACA (double strand) [CA10 dsDNA 20mer]”, the binding result in data set [1] is reported as “no binding”.

In the case of “GTCCACACACACACACACGA (double strand) [CA7 dsDNA 20mer]”, the results for the binding result in data set [1] and in data set [2] were “no binding” and “binds”, respectively.

For the sequence “GTCTCGTAATCTTCTTAGAG (double strand) [random 1 dsDNA 20mer]”, the binding result in data set [1] is reported as “no binding”; in data set [2], “binds”.
